{"source": "the supplement of paper PMC12889115", "system": "Salmonella enterica serovar Typhimurium SL1344", "assay": "bacterial growth OD600 after 18 h with compound and polymyxin B; higher = more bacterial growth (less inhibition)", "details": "50 µM, Mueller-Hinton broth", "note": "The other results are listed elsewhere or left out. Values are raw readings; no control value is given beside them.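 In the initial screen, polymyxin B was used at a concentration that permeabilizes Salmonella's outer membrane but not its inner membrane. Maximum growth was set by DMSO wells with or without polymyxin B. Since plates varied, data were ranked per plate, and compounds giving the lowest OD600 advanced as hits.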"}
{"molecule": "COc1ccccc1OCC(=O)NCC1CCCN(Cc2ccccc2)C1", "note": "(stereo unspecified)", "values": [{"measurement": "bacterial growth OD600", "setting": "polymyxin B 1 µg/mL", "result": 0.992}]}
{"molecule": "COCc1ccc(C(=O)N2CCc3[nH]nc(-c4ccc5c(c4)OCO5)c3C2)o1", "values": [{"measurement": "bacterial growth OD600", "setting": "polymyxin B 0.75 µg/mL", "result": 0.881}]}
{"molecule": "Cc1cccc(C)c1OCc1cc(C(=O)N2CCN3CCCC3C2)no1", "note": "(stereo unspecified)", "values": [{"measurement": "bacterial growth OD600", "setting": "polymyxin B 1 µg/mL", "result": 0.976}]}
{"molecule": "CCOC(=O)C1(Cc2ccc(Cl)cc2)CCN(C)CC1", "values": [{"measurement": "bacterial growth OD600", "setting": "polymyxin B 1 µg/mL", "result": 0.886}]}
{"molecule": "Cc1ccccc1CNC(=O)c1cc(CC(C)c2ccccc2)no1", "note": "(stereo unspecified)", "values": [{"measurement": "bacterial growth OD600", "setting": "polymyxin B 0.75 µg/mL", "result": 0.428}]}
{"molecule": "O=C(NCCc1cccc(Cl)c1)C1CCC(=O)N(Cc2ccc(Cl)cc2)C1", "note": "(stereo unspecified)", "values": [{"measurement": "bacterial growth OD600", "setting": "polymyxin B 1 µg/mL", "result": 0.575}]}
{"molecule": "Cn1cc(C(=O)N2CC[C@@H](N3CCN(c4ccccc4F)CC3)[C@H](O)C2)c2ccccc21", "values": [{"measurement": "bacterial growth OD600", "setting": "polymyxin B 1 µg/mL", "result": 1.05}]}
{"molecule": "O=C(NCc1cccnc1-n1cnc2ccccc21)C1CCC1", "values": [{"measurement": "bacterial growth OD600", "setting": "polymyxin B 1 µg/mL", "result": 0.882}]}
{"molecule": "CCN1C(=O)CC(CC(=O)N(C)CCc2ccccc2)(c2cccc(C(F)(F)F)c2)C1=O", "note": "(stereo unspecified)", "values": [{"measurement": "bacterial growth OD600", "setting": "polymyxin B 0.75 µg/mL", "result": 0.005}]}
{"molecule": "CCC(=O)N[C@@H]1c2ccccc2C2(CCN(C(=O)c3cc(C)n(C)n3)CC2)[C@H]1OCc1cccnc1", "values": [{"measurement": "bacterial growth OD600", "setting": "polymyxin B 0.75 µg/mL", "result": 0.863}]}
{"molecule": "CC(C)CN1CCC(C2CCN(C(=O)C3CCOCC3)C2)CC1", "note": "(stereo unspecified)", "values": [{"measurement": "bacterial growth OD600", "setting": "polymyxin B 0.75 µg/mL", "result": 0.81}]}
{"molecule": "COCc1c(C(=O)N(C)Cc2ccc(OC)c(OC)c2)cnn1-c1nccc(-c2ccco2)n1", "values": [{"measurement": "bacterial growth OD600", "setting": "polymyxin B 0.75 µg/mL", "result": 0.812}]}
{"molecule": "COc1cccc(CC(C2CCN(C(=O)c3cc(C)ccc3C)CC2)N(C)C(=O)c2ccn(C)n2)c1", "note": "(stereo unspecified)", "values": [{"measurement": "bacterial growth OD600", "setting": "polymyxin B 0.75 µg/mL", "result": 0.843}]}
{"molecule": "CCCc1cc(CN(C)C(=O)CC2(c3ccccc3OC)CC(=O)N(CCCOC)C2=O)n[nH]1", "note": "(stereo unspecified)", "values": [{"measurement": "bacterial growth OD600", "setting": "polymyxin B 0.75 µg/mL", "result": 0.892}]}
{"molecule": "O=C(c1cnsn1)N1CCCC(N2CCN(Cc3ccc4c(c3)OCO4)CC2)C1", "note": "(stereo unspecified)", "values": [{"measurement": "bacterial growth OD600", "setting": "polymyxin B 1 µg/mL", "result": 0.936}]}
{"molecule": "Cc1nc(CCNc2nncc(-c3ccc(F)cc3)n2)sc1C", "values": [{"measurement": "bacterial growth OD600", "setting": "polymyxin B 0.75 µg/mL", "result": 0.833}]}
{"molecule": "O=C(c1cn(CC2COc3ccccc3O2)nn1)N1CCC(Cc2ccccc2F)CC1", "note": "(stereo unspecified)", "values": [{"measurement": "bacterial growth OD600", "setting": "polymyxin B 1 µg/mL", "result": 0.582}]}
{"molecule": "CO[C@H]1[C@H](NC(=O)c2ccncc2)c2ccccc2C12CCN(C(=O)c1cccc(C)c1C)CC2", "values": [{"measurement": "bacterial growth OD600", "setting": "polymyxin B 0.75 µg/mL", "result": 0.846}]}
{"molecule": "CCOC(=O)C1(CCCc2ccccc2)CCN(C(=O)CCc2cnccn2)CC1", "values": [{"measurement": "bacterial growth OD600", "setting": "polymyxin B 1 µg/mL", "result": 0.808}]}
{"molecule": "CN(CC1CCOCC1)C(=O)c1cc(COc2cccc3cnccc23)on1", "values": [{"measurement": "bacterial growth OD600", "setting": "polymyxin B 1 µg/mL", "result": 0.93}]}
{"molecule": "Cc1oc(-c2ccccc2NC(=O)c2ccccc2)nc1CNC(=O)C1CC(=O)N(CC(C)C)C1", "note": "(stereo unspecified)", "values": [{"measurement": "bacterial growth OD600", "setting": "polymyxin B 0.75 µg/mL", "result": 0.693}]}
{"molecule": "COCCN(Cc1ccccn1)C(Cc1ccccc1)C1CCN(C2CCCC2)CC1", "note": "(stereo unspecified)", "values": [{"measurement": "bacterial growth OD600", "setting": "polymyxin B 0.75 µg/mL", "result": 0.816}]}
{"molecule": "O=S(=O)(c1ccccc1C(F)(F)F)N1CCC(CO)(Cc2ccccc2Cl)CC1", "values": [{"measurement": "bacterial growth OD600", "setting": "polymyxin B 1 µg/mL", "result": -0.002}]}
{"molecule": "CN(Cc1n[nH]c2c1CCCC2)C(=O)COc1ccc(N2CCN(c3ccccn3)CC2)nn1", "values": [{"measurement": "bacterial growth OD600", "setting": "polymyxin B 0.75 µg/mL", "result": 0.757}]}
{"molecule": "COc1cccc(-n2cc(CN(C)C(=O)CCC3(Cc4ccc(OC)cc4F)CCC(=O)N3)cn2)c1", "note": "(stereo unspecified)", "values": [{"measurement": "bacterial growth OD600", "setting": "polymyxin B 0.75 µg/mL", "result": 0.821}]}
{"molecule": "COc1ncccc1C(=O)NCc1cccnc1Oc1ccc(F)cc1F", "values": [{"measurement": "bacterial growth OD600", "setting": "polymyxin B 1 µg/mL", "result": 0.973}]}
{"molecule": "COc1ccc(-n2ncc(C(C)NCc3ccc(OC)cc3F)c2C)cc1", "note": "(stereo unspecified)", "values": [{"measurement": "bacterial growth OD600", "setting": "polymyxin B 0.75 µg/mL", "result": 0.965}]}
{"molecule": "COC(=O)c1cc(CNC(=O)C2(c3ccc(Cl)cc3)CCC2)cc(NC(=O)c2ccco2)c1", "values": [{"measurement": "bacterial growth OD600", "setting": "polymyxin B 0.75 µg/mL", "result": 0.929}]}
{"molecule": "COc1cccc(CC2(CO)CCN(Cc3csc(C(C)=O)c3)CC2)c1", "values": [{"measurement": "bacterial growth OD600", "setting": "polymyxin B 1 µg/mL", "result": 0.855}]}
{"molecule": "O=C(CCC1CCN(C(=O)CN2CCC(c3ccccc3)CC2)CC1)NC1CC1", "values": [{"measurement": "bacterial growth OD600", "setting": "polymyxin B 0.75 µg/mL", "result": 0.832}]}
{"molecule": "CCOC(=O)N1CCN(C(=O)c2ccc(N3CCC(NCCc4cnccn4)CC3)cc2)CC1", "values": [{"measurement": "bacterial growth OD600", "setting": "polymyxin B 0.75 µg/mL", "result": 0.888}]}
